PubChem BioAssay AID1159578 | Peter MacCallum Cancer Centre | 2015
The deposit covers about 18,000 reagents; this is a part drawn at random. About 1,030 of them (5.7%) were called active. 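Inactive calls also include pools with fewer than 3300 nuclei, whose migration was not assessed.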 Raw values vary from plate to plate and are shown uncorrected. A number with no mark means an inactive call. Further read-outs or replicates are left out here. Reagent sequences are not shown.

Test: 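Knock-downs that alter how fast lymphatic endothelial cells migrate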 (primary screen)
Cells: human lymphatic endothelial cells
Knock-down reagent: siRNA pool against human genes, 40 nM
Duration: 48 h after transfection
Read-out: 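High-content imaging of dye-stained cells in a scratch assay measures filled wound area and nuclei per well; duplicate means given as ratio to mock and robust z-score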
Direction: migration robust z-score: higher = faster migration into the scratch; nuclei per well: higher = more cells in the well
Rule for the call: 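Pools averaging fewer than 3300 nuclei are never called; remaining pools count as changed when migration robust z lies outside -2 to 2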
Calls: active = migration changed; inactive = no migration change, or too few cells

Silencing of LAPTM5 came out at: migration robust z-score 1.14; migration class with cell-count check migration z between -2 and 2; enough cells; nuclei per well, duplicate mean 4490.
With knock-down of DOLPP1, the record shows migration robust z-score 0.44; migration class with cell-count check migration z between -2 and 2; enough cells; nuclei per well, duplicate mean 4582.
HPDL showed migration robust z-score -2.63 (active); migration class with cell-count check migration z below -2; enough cells; nuclei per well, duplicate mean 6344.
Against DHCR24, the entry reads migration robust z-score -1.77; migration class with cell-count check under 3300 nuclei; migration not judged; nuclei per well, duplicate mean 3086.
FBXL14 showed migration robust z-score -0.1; migration class with cell-count check migration z between -2 and 2; enough cells; nuclei per well, duplicate mean 4096.
For ZNF550, the entry reads migration robust z-score -0.86; migration class with cell-count check migration z between -2 and 2; enough cells; nuclei per well, duplicate mean 5181.
Silencing of PCSK4 came out at: migration robust z-score 1.06; migration class with cell-count check migration z between -2 and 2; enough cells; nuclei per well, duplicate mean 5724.
HOXD8 scored migration robust z-score -0.73; migration class with cell-count check migration z between -2 and 2; enough cells; nuclei per well, duplicate mean 7227.
For PCLAF the deposit lists migration robust z-score -0.39; migration class with cell-count check migration z between -2 and 2; enough cells; nuclei per well, duplicate mean 5146.
THYN1 showed migration robust z-score -5.58; migration class with cell-count check under 3300 nuclei; migration not judged; nuclei per well, duplicate mean 1282.
After knock-down of CA2, the screen gave migration robust z-score 1.4; migration class with cell-count check migration z between -2 and 2; enough cells; nuclei per well, duplicate mean 5580.
Depletion of APBB2 gave: migration robust z-score 0.66; migration class with cell-count check migration z between -2 and 2; enough cells; nuclei per well, duplicate mean 5860.
Silencing of EPC1 gave: migration robust z-score 0.31; migration class with cell-count check migration z between -2 and 2; enough cells; nuclei per well, duplicate mean 6356.
Depletion of GLT1D1 resulted in: migration robust z-score -0.34; migration class with cell-count check migration z between -2 and 2; enough cells; nuclei per well, duplicate mean 4841.
After knock-down of OR5L2, the screen gave migration robust z-score -1.3; migration class with cell-count check migration z between -2 and 2; enough cells; nuclei per well, duplicate mean 4893.
With knock-down of ETFRF1 the results were migration robust z-score 1.63; migration class with cell-count check migration z between -2 and 2; enough cells; nuclei per well, duplicate mean 7198.
Knock-down of TSEN2 came out at: migration robust z-score 0.91; migration class with cell-count check migration z between -2 and 2; enough cells; nuclei per well, duplicate mean 4092.
After knock-down of GNPDA1, the record shows migration robust z-score 0.84; migration class with cell-count check migration z between -2 and 2; enough cells; nuclei per well, duplicate mean 6992.
DCAF12 scored migration robust z-score -0.52; migration class with cell-count check migration z between -2 and 2; enough cells; nuclei per well, duplicate mean 5434.
GGA3 gave migration robust z-score 1.23; migration class with cell-count check migration z between -2 and 2; enough cells; nuclei per well, duplicate mean 5146.
Depletion of ATRX gave: migration robust z-score 0.54; migration class with cell-count check migration z between -2 and 2; enough cells; nuclei per well, duplicate mean 5350.
Knock-down of MTNR1B resulted in: migration robust z-score -0.88; migration class with cell-count check migration z between -2 and 2; enough cells; nuclei per well, duplicate mean 6370.
With knock-down of ZNF696, the record shows migration robust z-score -1.17; migration class with cell-count check migration z between -2 and 2; enough cells; nuclei per well, duplicate mean 6590.
After knock-down of LRAT the results were migration robust z-score -0.11; migration class with cell-count check migration z between -2 and 2; enough cells; nuclei per well, duplicate mean 4586.
For STATH the deposit lists migration robust z-score -1.21; migration class with cell-count check migration z between -2 and 2; enough cells; nuclei per well, duplicate mean 4766.
POLE4 showed migration robust z-score 0.03; migration class with cell-count check migration z between -2 and 2; enough cells; nuclei per well, duplicate mean 7030.
With knock-down of KCNIP2 the results were migration robust z-score -1.87; migration class with cell-count check migration z between -2 and 2; enough cells; nuclei per well, duplicate mean 5674.

As entered above.
Entry for ATRX in “migration class with cell-count check”: migration z between -2 and 2; enough cells
Result for PCLAF in “migration class with cell-count check”: migration z between -2 and 2; enough cells
For “migration robust z-score”, GNPDA1 reads 0.84
Entry of DOLPP1 in “nuclei per well, duplicate mean”: 4582
